From the supplement of paper PMC3334620
Whole data set: some 33,000 sequences, median “E-score (-0.5 to 0.5)” near -0.0059, cut for the highest 2% near 0.26. The list shows a part of the results.

Each sequence was assayed against T1, Cin5 (UniProt P40917) (assay: PBM E-score (8-mer binding enrichment) (E-score (-0.5 to 0.5)); higher = stronger / more preferred TF binding). Details: protein concentration: 100 nM; construct: GST-full length.
T1 sequence: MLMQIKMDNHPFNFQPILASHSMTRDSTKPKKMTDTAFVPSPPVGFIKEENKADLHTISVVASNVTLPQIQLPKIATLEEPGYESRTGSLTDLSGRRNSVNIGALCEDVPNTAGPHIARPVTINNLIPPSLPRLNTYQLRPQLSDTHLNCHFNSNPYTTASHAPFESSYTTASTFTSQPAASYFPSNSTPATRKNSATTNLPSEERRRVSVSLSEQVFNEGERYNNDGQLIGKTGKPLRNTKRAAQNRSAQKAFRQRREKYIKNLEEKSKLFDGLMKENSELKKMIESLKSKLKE
Experimental: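 Universal 'all 10-mer' protein binding microarrays (Agilent AMADID 015681) probed with GST-tagged S. cerevisiae TFs (full-length or DBD) made by in vitro transcription/translation (PURExpress), about 100-200 nM. Bound TF was detected with fluorescent anti-GST. Each ungapped 8-mer (which stands for itself and its reverse complement) is scored by the PBM enrichment score (E-score), a modified Wilcoxon-Mann-Whitney statistic from -0.5 to +0.5, computed with the Universal PBM Analysis Suite. Scale: above 0.35 generally sequence-specific binding.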

Row | Sequence | PBM E-score
1 | GATCGTGA | -0.0171
2 | TGAATTCA | 0.133
3 | AGATGTTA | -0.0463
4 | AAAAAGTT | 0.0395
5 | GGACATCA | 0.0421
6 | AAGGATAA | 0.121
7 | ACCGGCTA | -0.145
8 | GGAAGCGA | 0.0828
9 | GCTTGACC | -0.0611
10 | AAAGGAGA | -0.131
11 | ATGTCCGG | -0.0461
12 | AGAAACGC | -0.112
13 | AAAGACTC | -0.0736
14 | CCATGCCG | 0.0408
15 | ATATTAGA | 0.159
16 | GTGTTAAA | -0.121
17 | GGCAGGTA | -0.258
18 | CCAAGGTA | -0.105
19 | AATGGAGG | -0.0517
20 | AGATATAC | 0.077
21 | ACAGGAGG | -0.287
22 | GCGACGGA | -0.0442
23 | ATAGAGCC | -0.113
24 | GTTAGGTA | 0.242
25 | ATATCGTA | 0.222

Row | Sequence | PBM E-score
26 | AAGGACAG | -0.0636
27 | CTGCGAAC | -0.112
28 | ACATAATG | 0.204
29 | ATAATTAC | 0.365
30 | ACGATAAT | 0.162
31 | GTCTTCCA | -0.173
32 | ATCCGCAG | 0.19
33 | CGCTATAG | -0.123
34 | GCACGTAA | -0.00694
35 | GTAGTAAA | 0.149
36 | ACAACTAC | 0.193
37 | GTCTTCAC | -0.199
38 | CTATCAAG | 0.0672
39 | GGGGCCTA | -0.347
40 | AAACCCCA | 0.176
41 | ACGCGCGC | 0.158
42 | CTATCAGA | -0.0903
43 | CTGTGGTC | -0.174
44 | AGCATTAA | 0.209
45 | TGTATTAA | 0.202
46 | ACGACCAG | -0.0144
47 | AGGCTGGG | -0.199
48 | ACCTCTAA | -0.142
49 | AATACATG | 0.195
50 | CGATATTC | 0.0444

Row | Sequence | PBM E-score
51 | CTGTGATA | 0.0273
52 | ATCCGAAT | 0.236
53 | ATAGACTG | 0.0413
54 | CGAAACTC | -0.132
55 | AAGGATCT | -0.142
56 | CCGGAACG | 0.13
57 | AGCAGGAA | -0.0205
58 | GCAAGAGA | -0.0579
59 | ACCGATTC | -0.131
60 | GCTCGTAC | 0.0691
61 | GGCGGTTA | -0.0396
62 | GAATCATC | 0.0234
63 | CATCTGAA | 0.0026
64 | AGTCAGGC | 0.135
65 | CGTCGTCA | 0.0152
66 | TCGAACCA | 0.00221
67 | AGAGAGAT | 0.0741
68 | CCGCTTCA | -0.0755
69 | ATGGGTTA | 0.179
70 | GGCCCGAA | -0.00867
71 | AGACCCAC | -0.00266
72 | ATTTTAGA | -0.0939
73 | GGTCCAAA | -0.169
74 | CAGACTTC | -0.168
75 | GCAGACAA | 0.108

Row | Sequence | PBM E-score
76 | AGGAGGTA | -0.18
77 | AGCACGCC | -0.0687
78 | AGGAACGA | -0.244
79 | ACTCAGCT | 0.0834
80 | ATCTGCAA | -0.0484
81 | CCGACTGC | -0.178
82 | ACTCTCGC | -0.0658
83 | ACTGCGGA | 0.0415
84 | ACCGCGCT | -0.03
85 | GATCGGGC | -0.0615
86 | CCACGAGC | -0.163
87 | ACTTTTAA | 0.0259
88 | AGTTTCCC | -0.145
89 | CGCGAAGA | 0.0959
90 | AGATATGG | 0.26
91 | AAAGCCAA | -0.0212
92 | CCCTGAAA | -0.105
93 | CCTGTAAA | -0.249
94 | ATCTTTGG | -0.0304
95 | GATCCTAA | -0.084
96 | CCAGAGGG | -0.236
97 | CTCAACAA | 0.197
98 | ATTCGAGG | -0.188
99 | GGCAGAAC | 0.0879
100 | CTTGGTAA | 0.00988

Reformatted: results already given

| Row | Sequence | PBM E-score |
| --- | --- | --- |
| 55 | AAGGATCT | -0.142 |
| 56 | CCGGAACG | 0.13 |
| 57 | AGCAGGAA | -0.0205 |
| 58 | GCAAGAGA | -0.0579 |
| 59 | ACCGATTC | -0.131 |
| 60 | GCTCGTAC | 0.0691 |
| 61 | GGCGGTTA | -0.0396 |
| 62 | GAATCATC | 0.0234 |
| 63 | CATCTGAA | 0.0026 |
| 64 | AGTCAGGC | 0.135 |
| 65 | CGTCGTCA | 0.0152 |
| 66 | TCGAACCA | 0.00221 |
| 67 | AGAGAGAT | 0.0741 |
| 68 | CCGCTTCA | -0.0755 |
| 69 | ATGGGTTA | 0.179 |
| 70 | GGCCCGAA | -0.00867 |
| 71 | AGACCCAC | -0.00266 |
| 72 | ATTTTAGA | -0.0939 |
| 73 | GGTCCAAA | -0.169 |
| 74 | CAGACTTC | -0.168 |
| 75 | GCAGACAA | 0.108 |
| 76 | AGGAGGTA | -0.18 |
| 77 | AGCACGCC | -0.0687 |
| 78 | AGGAACGA | -0.244 |
| 79 | ACTCAGCT | 0.0834 |
| 80 | ATCTGCAA | -0.0484 |
| 81 | CCGACTGC | -0.178 |
| 82 | ACTCTCGC | -0.0658 |
| 83 | ACTGCGGA | 0.0415 |
| 84 | ACCGCGCT | -0.03 |
| 85 | GATCGGGC | -0.0615 |
| 86 | CCACGAGC | -0.163 |
| 87 | ACTTTTAA | 0.0259 |
| 88 | AGTTTCCC | -0.145 |
| 89 | CGCGAAGA | 0.0959 |
| 90 | AGATATGG | 0.26 |
| 91 | AAAGCCAA | -0.0212 |
| 92 | CCCTGAAA | -0.105 |
| 93 | CCTGTAAA | -0.249 |
| 94 | ATCTTTGG | -0.0304 |
| 95 | GATCCTAA | -0.084 |
| 96 | CCAGAGGG | -0.236 |
| 97 | CTCAACAA | 0.197 |
| 98 | ATTCGAGG | -0.188 |

(next part)

Row | Sequence | PBM E-score
101 | CGGTTGGC | 0.00099
102 | GAATCGTC | -0.00697
103 | ATATTACA | 0.209
104 | AATATAAA | 0.249
105 | GACATCCC | 0.115
106 | AGTCTAGC | -0.149
107 | GCGCTTGA | 0.155
108 | AAACCTGA | 0.135
109 | ACTGAAGG | -0.0522
110 | ACGCACGC | 0.0945
111 | CGTAGCCA | -0.26
112 | CAGTGCAG | -0.0567
113 | CTAGGTGA | -0.0642
114 | AACCATGG | -0.0244
115 | AGCCACGG | -0.265
116 | AGATCGTA | -0.185
117 | ATGGTAAT | 0.131
118 | CGTACCAG | -0.133
119 | AGCCGTCA | -0.0319
120 | TTGGACAA | 0.0284
121 | ATGTACAT | 0.205
122 | ACGAACGT | 0.0198
123 | CATAGACG | -0.0191
124 | GATACACC | 0.143
125 | AGGCCGGA | -0.198

Row | Sequence | PBM E-score
126 | GAAGTCTC | -0.202
127 | CGGAAACA | 0.0404
128 | CGAGGGCC | -0.113
129 | AAAGGAGG | -0.267
130 | CAATAATC | 0.233
131 | ATGATCAT | 0.0197
132 | ATGGGGTC | 0.0204
133 | TGAGGTAA | 0.208
134 | CGTAAACC | 0.0296
135 | TAGACCTA | -0.164
136 | CGTCAAGA | -0.192
137 | GCGCGAGA | 0.0814
138 | CTTCTTTC | -0.0606
139 | CTCGGATA | 0.0423
140 | GCTTAAGC | -0.0648
141 | CCTCTCGC | -0.107
142 | ATCGCAAT | 0.175
143 | TAATATTA | 0.368
144 | CCACATAA | 0.184
145 | CGGCGCAA | 0.0352
146 | ACGTCACT | 0.00589
147 | ATGCCCGA | -0.0291
148 | AGCATAGA | -0.0638
149 | CTCACTTC | -0.215
150 | GATTTGGC | 0.0542

Row | Sequence | PBM E-score
151 | CCCATTTA | 0.0423
152 | CGACGATC | 0.112
153 | CACAAGCC | -0.211
154 | AACAGTGT | 0.0352
155 | CGCGACAA | 0.217
156 | AGCCACAT | 0.0988
157 | ACTGTAAT | 0.199
158 | ACGCCGTG | -0.00873
159 | GTACAGGA | -0.0557
160 | ATTCTCAC | 0.144
161 | CTAGAGCA | -0.0904
162 | ATCTACTC | 0.0361
163 | GCTATGCA | -0.16
164 | ATCGGAGG | -0.216
165 | ACATGCGG | -0.0675
166 | AGTGGAGG | -0.0708
167 | AGAGACGC | -0.00275
168 | CGGTTGAA | 0.112
169 | AAGAGCCG | -0.187
170 | GGGCACGA | -0.144
171 | CGGTCCAC | -0.344
172 | GCCCCGGC | -0.277
